Results are given in words; binding and its absence hold for the method and conditions named. In cells and extracts the contact can be indirect. These calls come from enrichment with a bait or labelling near it, and not all partners need be listed.

Sequences of proteins named here, by UniProt entry; tags and fusion partners are left off.
UniProt P03372: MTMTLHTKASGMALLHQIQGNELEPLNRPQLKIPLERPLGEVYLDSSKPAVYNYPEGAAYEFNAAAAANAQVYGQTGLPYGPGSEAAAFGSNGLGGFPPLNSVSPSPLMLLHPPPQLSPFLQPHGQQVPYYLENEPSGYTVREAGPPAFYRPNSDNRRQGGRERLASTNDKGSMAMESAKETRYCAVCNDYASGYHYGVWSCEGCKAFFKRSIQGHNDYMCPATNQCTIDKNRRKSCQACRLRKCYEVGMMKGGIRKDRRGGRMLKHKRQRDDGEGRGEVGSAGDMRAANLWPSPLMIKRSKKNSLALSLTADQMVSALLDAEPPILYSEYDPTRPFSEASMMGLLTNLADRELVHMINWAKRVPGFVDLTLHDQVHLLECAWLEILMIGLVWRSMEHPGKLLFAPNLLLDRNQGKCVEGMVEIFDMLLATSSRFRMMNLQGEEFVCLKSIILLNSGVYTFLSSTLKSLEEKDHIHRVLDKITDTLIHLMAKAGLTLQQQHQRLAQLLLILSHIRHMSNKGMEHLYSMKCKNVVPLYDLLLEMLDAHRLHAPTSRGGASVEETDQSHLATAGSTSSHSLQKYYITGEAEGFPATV

Sequences and labels used below:
B1: PFKM (protein, UniProt P08237 1-780)
chain: MTHEEHHAAKTLGIGKAIAVLTSGGDAQGMNAAVRAVVRVGIFTGARVFFVHEGYQGLVDGGDHIKEATWESVSMMLQLGGTVIGSARCKDFREREGRLRAAYNLVKRGITNLCVIGGDGSLTGADTFRSEWSDLLSDLQKAGKITDEEATKSSYLNIVGLVGSIDNDFCGTDMTIGTDSALHRIMEIVDAITTTAQSHQRTFVLEVMGRHCGYLALVTSLSCGADWVFIPECPPDDDWEEHLCRRLSETRTRGSRLNIIIVAEGAIDKNGKPITSEDIKNLVVKRLGYDTRVTVLGHVQRGGTPSAFDRILGSRMGVEAVMALLEGTPDTPACVVSLSGNQAVRLPLMECVQVTKDVTKAMDEKKFDEALKLRGRSFMNNWEVYKLLAHVRPPVSKSGSHTVAVMNVGAPAAGMNAAVRSTVRIGLIQGNRVLVVHDGFEGLAKGQIEEAGWSYVGGWTGQGGSKLGTKRTLPKKSFEQISANITKFNIQGLVIIGGFEAYTGGLELMEGRKQFDELCIPFVVIPATVSNNVPGSDFSVGADTALNTICTTCDRIKQSAAGTKRRVFIIETMGGYCGYLATMAGLAAGADAAYIFEEPFTIRDLQANVEHLVQKMKTTVKRGLVLRNEKCNENYTTDFIFNLYSEEGKGIFDSRKNVLGHMQQGGSPTPFDRNFATKMGAKAMNWMSGKIKESYRNGRIFANTPDSGCVLGMRKRALVFQPVAELKDQTDFEHRIPKEQWWLKLRPILKILAKYEIDLDTSDHAHLEHITRKRSGEAAV
B2: LIG3 (protein, UniProt P49916 43-1009)
chain: LLHGHPLFLRRKPVLSFQGSHLRSRATYLVFLPGLHVGLCSGPCEMAEQRFCVDYAKRGTAGCKKCKEKIVKGVCRIGKVVPNPFSESGGDMKEWYHIKCMFEKLERARATTKKIEDLTELEGWEELEDNEKEQITQHIADLSSKAAGTPKKKAVVQAKLTTTGQVTSPVKGASFVTSTNPRKFSGFSAKPNNSGEAPSSPTPKRSLSSSKCDPRHKDCLLREFRKLCAMVADNPSYNTKTQIIQDFLRKGSAGDGFHGDVYLTVKLLLPGVIKTVYNLNDKQIVKLFSRIFNCNPDDMARDLEQGDVSETIRVFFEQSKSFPPAAKSLLTIQEVDEFLLRLSKLTKEDEQQQALQDIASRCTANDLKCIIRLIKHDLKMNSGAKHVLDALDPNAYEAFKASRNLQDVVERVLHNAQEVEKEPGQRRALSVQASLMTPVQPMLAEACKSVEYAMKKCPNGMFSEIKYDGERVQVHKNGDHFSYFSRSLKPVLPHKVAHFKDYIPQAFPGGHSMILDSEVLLIDNKTGKPLPFGTLGVHKKAAFQDANVCLFVFDCIYFNDVSLMDRPLCERRKFLHDNMVEIPNRIMFSEMKRVTKALDLADMITRVIQEGLEGLVLKDVKGTYEPGKRHWLKVKKDYLNEGAMADTADLVVLGAFYGQGSKGGMMSIFLMGCYDPGSQKWCTVTKCAGGHDDATLARLQNELDMVKISKDPSKIPSWLKVNKIYYPDFIVPDPKKAAVWEITGAEFSKSEAHTADGISIRFPRCTRIRDDKDWKSATNLPQLKELYQLSKEKADFTVVAGDEGSSTTGGSSEENKGPSGSAVSRKAPSKPSASTKKAEGKLSNSNSKDGNMQTAKPSAMKVGEKLATKSSPVKVGEKRKAADETLCQTKVLLDIFTGVRLYLPPSTPDFSRLRRYFVAFDGDLVQEFDMTSATHVLGSRDKNPAAQQVSPEWIWACIRKRRLVAPC
B3: PFKP (protein, UniProt Q01813 1-784)
chain: MDADDSRAPKGSLRKFLEHLSGAGKAIGVLTSGGDAQGMNAAVRAVVRMGIYVGAKVYFIYEGYQGMVDGGSNIAEADWESVSSILQVGGTIIGSARCQAFRTREGRLKAACNLLQRGITNLCVIGGDGSLTGANLFRKEWSGLLEELARNGQIDKEAVQKYAYLNVVGMVGSIDNDFCGTDMTIGTDSALHRIIEVVDAIMTTAQSHQRTFVLEVMGRHCGYLALVSALACGADWVFLPESPPEEGWEEQMCVKLSENRARKKRLNIIIVAEGAIDTQNKPITSEKIKELVVTQLGYDTRVTILGHVQRGGTPSAFDRILASRMGVEAVIALLEATPDTPACVVSLNGNHAVRLPLMECVQMTQDVQKAMDERRFQDAVRLRGRSFAGNLNTYKRLAIKLPDDQIPKTNCNVAVINVGAPAAGMNAAVRSAVRVGIADGHRMLAIYDGFDGFAKGQIKEIGWTDVGGWTGQGGSILGTKRVLPGKYLEEIATQMRTHSINALLIIGGFEAYLGLLELSAAREKHEEFCVPMVMVPATVSNNVPGSDFSIGADTALNTITDTCDRIKQSASGTKRRVFIIETMGGYCGYLANMGGLAAGADAAYIFEEPFDIRDLQSNVEHLTEKMKTTIQRGLVLRNESCSENYTTDFIYQLYSEEGKGVFDCRKNVLGHMQQGGAPSPFDRNFGTKISARAMEWITAKLKEARGRGKKFTTDDSICVLGISKRNVIFQPVAELKKQTDFEHRIPKEQWWLKLRPLMKILAKYKASYDVSDSGQLEHVQPWSV
B4: UACA (protein, UniProt Q9BZF9 1-1416)
chain: MKSLKSRLRRQDVPGPASSGAAAASAHAADWNKYDDRLMKAAERGDVEKVTSILAKKGVNPGKLDVEGRSVFHVVTSKGNLECLNAILIHGVDITTSDTAGRNALHLAAKYGHALCLQKLLQYNCPTEHADLQGRTALHDAAMADCPSSIQLLCDHGASVNAKDVDGRTPLVLATQMSRPTICQLLIDRGADVNSRDKQNRTALMLGCEYGCRDAVEVLIKNGADISLLDALGHDSSYYARIGDNLDILTLLKTASENTNKGRELWKKGPSLQQRNLTHMQDEVNVKSHQREHQNIQDLEIENEDLKERLRKIQQEQRILLDKVNGLQLQLNEEVMVADDLESEREKLKSLLAAKEKQHEESLRTIEALKNRFKYFESDHLGSGSHFSNRKEDMLLKQGQMYMADSQCTSPGIPAHMQSRSMLRPLELSLPSQTSYSENEILKKELEAMRTFCESAKQDRLKLQNELAHKVAECKALALECERVKEDSDEQIKQLEDALKDVQKRMYESEGKVKQMQTHFLALKEHLTSEAASGNHRLTEELKDQLKDLKVKYEGASAEVGKLRNQIKQNEMIVEEFKRDEGKLIEENKRLQKELSMCEMEREKKGRKVTEMEGQAKELSAKLALSIPAEKFENMKSSLSNEVNEKAKKLVEMEREHEKSLSEIRQLKRELENVKAKLAQHVKPEEHEQVKSRLEQKSGELGKKITELTLKNQTLQKEIEKVYLDNKLLKEQAHNLTIEMKNHYVPLKVSEDMKKSHDAIIDDLNRKLLDVTQKYTEKKLEMEKLLLENDSLSKDVSRLETVFVPPEKHEKEIIALKSNIVELKKQLSELKKKCGEDQEKIHALTSENTNLKKMMSNQYVPVKTHEEVKMTLNDTLAKTNRELLDVKKKFEDINQEFVKIKDKNEILKRNLENTQNQIKAEYISLAEHEAKMSSLSQSMRKVQDSNAEILANYRKGQEEIVTLHAEIKAQKKELDTIQECIKVKYAPIVSFEECERKFKATEKELKDQLSEQTQKYSVSEEEVKKNKQENDKLKKEIFTLQKDLRDKTVLIEKSHEMERALSRKTDELNKQLKDLSQKYTEVKNVKEKLVEENAKQTSEILAVQNLLQKQHVPLEQVEALKKSLNGTIENLKEELKSMQRCYEKEQQTVTKLHQLLENQKNSSVPLAEHLQIKEAFEKEVGIIKASLREKEEESQNKMEEVSKLQSEVQNTKQALKKLETREVVDLSKYKATKSDLETQISSLNEKLANLNRKYEEVCEEVLHAKKKEISAKDEKELLHFSIEQEIKDQKERCDKSLTTITELQRRIQESAKQIEAKDNKITELLNDVERLKQALNGLSQLTYTSGNPTKRQSQLIDTLQHQVKSLEQQLADADRQHQEVIAIYRTHLLSAAQGHMDEDVQEALLQIIQMRQGLVC
B5: PDS5B (protein, UniProt Q9NTI5 1-1447)
chain: MAHSKTRTNDGKITYPPGVKEISDKISKEEMVRRLKMVVKTFMDMDQDSEEEKELYLNLALHLASDFFLKHPDKDVRLLVACCLADIFRIYAPEAPYTSPDKLKDIFMFITRQLKGLEDTKSPQFNRYFYLLENIAWVKSYNICFELEDSNEIFTQLYRTLFSVINNGHNQKVHMHMVDLMSSIICEGDTVSQELLDTVLVNLVPAHKNLNKQAYDLAKALLKRTAQAIEPYITNFFNQVLMLGKTSISDLSEHVFDLILELYNIDSHLLLSVLPQLEFKLKSNDNEERLQVVKLLAKMFGAKDSELASQNKPLWQCYLGRFNDIHVPIRLECVKFASHCLMNHPDLAKDLTEYLKVRSHDPEEAIRHDVIVSIVTAAKKDILLVNDHLLNFVRERTLDKRWRVRKEAMMGLAQIYKKYALQSAAGKDAAKQIAWIKDKLLHIYYQNSIDDRLLVERIFAQYMVPHNLETTERMKCLYYLYATLDLNAVKALNEMWKCQNLLRHQVKDLLDLIKQPKTDASVKAIFSKVMVITRNLPDPGKAQDFMKKFTQVLEDDEKIRKQLEVLVSPTCSCKQAEGCVREITKKLGNPKQPTNPFLEMIKFLLERIAPVHIDTESISALIKQVNKSIDGTADDEDEGVPTDQAIRAGLELLKVLSFTHPISFHSAETFESLLACLKMDDEKVAEAALQIFKNTGSKIEEDFPHIRSALLPVLHHKSKKGPPRQAKYAIHCIHAIFSSKETQFAQIFEPLHKSLDPSNLEHLITPLVTIGHIALLAPDQFAAPLKSLVATFIVKDLLMNDRLPGKKTTKLWVPDEEVSPETMVKIQAIKMMVRWLLGMKNNHSKSGTSTLRLLTTILHSDGDLTEQGKISKPDMSRLRLAAGSAIVKLAQEPCYHEIITLEQYQLCALAINDECYQVRQVFAQKLHKGLSRLRLPLEYMAICALCAKDPVKERRAHARQCLVKNINVRREYLKQHAAVSEKLLSLLPEYVVPYTIHLLAHDPDYVKVQDIEQLKDVKECLWFVLEILMAKNENNSHAFIRKMVENIKQTKDAQGPDDAKMNEKLYTVCDVAMNIIMSKSTTYSLESPKDPVLPARFFTQPDKNFSNTKNYLPPEMKSFFTPGKPKTTNVLGAVNKPLSSAGKQSQTKSSRMETVSNASSSSNPSSPGRIKGRLDSSEMDHSENEDYTMSSPLPGKKSDKRDDSDLVRSELEKPRGRKKTPVTEQEEKLGMDDLTKLVQEQKPKGSQRSRKRGHTASESDEQQWPEEKRLKEDILENEDEQNSPPKKGKRGRPPKPLGGGTPKEEPTMKTSKKGSKKKSGPPAPEEEEEEERQSGNTEQKSKSKQHRVSRRAQQRAESPESSAIESTQSTPQKGRGRPSKTPSPSQPKKNVRVGRSKQAATKENDSSEEVDVFQGSSPVDDIPQEETEEEEVSTVNVRRRSAKRERR

The assay deals with estrogen receptor alpha (ER) (human (endogenous in MCF-7 and ZR-75)) (UniProt P03372). Description: affinity purification with mass spectrometry; anti-ER antibody (Santa Cruz sc-8002) on Dynabeads Protein G, 1.5 mg lysate of MCF-7 or ZR-75 cells overnight at 4°C; cells starved, vehicle or 10 µM ERX-11 for 2 hr, then 10 nM E2 for 2 hr; the named proteins are ER binders whose co-precipitation was disrupted by ERX-11.
Take B1: the binding result is listed as “binds”.

As to B2, the binding result was “binds”.

Take B3: the binding result was “binds”.

For the molecule B4, the binding entry was “binds”.

On to B5, for which the binding entry is on record as “binds”.
